The results in this text go back to PubChem BioAssay AID256 (DTP/NCI, 2004).

The list is a part of this screen's results and no random one: it gathers tests that were run many times, whatever their T/C, doses with no T/C, and many T/C values between a quarter and a half above the control. Other doses and runs of a compound stand elsewhere. T/C is the treated group as % of the vehicle group. Some entries give survivors of the animals treated and no T/C: the source files T/C as zero there, which appears to mark a toxic dose or a test without result, not a measured value. Some survivor counts are full or nearly so, which does not show that the dose was tolerated: the source hardly ever lists a survival T/C far under the control, and the zero likely stands for such cases as well. Counts of survivors are from the toxicity check (mostly the fifth day) where no day follows; animals may have died later. Schedules are NCI's codes, read here as Q, the interval in days (D) or hours (H), X, the number of doses. Some entries were tested several times; their values stand side by side, smallest first. Where survival is the endpoint, the PubChem record calls one and a half times the control and up active, and a quarter to a half above the control has no call in these data; cut-offs in other NCI protocols can differ.

The subject of the test is CD2F1 mice, L1210 leukemia ip, survival T/C. Nature of the test: NCI In Vivo Anticancer Drug Screen. Data for tumor model L1210 Leukemia (intraperitoneal) in CD2F1 (CDF1) mice. The conditions noted are these: higher T/C = longer survival. The protocol: The antitumor activity of compounds was measured in mice bearing transplantable tumors. Survival or tumor size were measured and the results are expressed as the measurement made in the treated group (T) divided by the measurement made in the vehicle treated control group (C). The tumor model used in this assay is L1210 Leukemia (intraperitoneal) in CD2F1 (CDF1) mice

The mark [1] stands for this setting: T/C endpoint: mean survival time, dose: 200.0 mg/kg/injection, schedule: Q04DX003 (ip), vehicle: saline with Tween-80.
Where [2] appears, read: T/C endpoint: mean survival time, dose: 400.0 mg/kg/injection, schedule: Q04DX003 (ip), vehicle: saline with Tween-80.
The mark [3] stands for this setting: T/C endpoint: mean survival time, dose: 100.0 mg/kg/injection, schedule: Q04DX003 (ip), vehicle: saline.
Setting [4] is: T/C endpoint: mean survival time, dose: 200.0 mg/kg/injection, schedule: Q04DX003 (ip), vehicle: saline.
Where [5] appears, read: T/C endpoint: mean survival time, dose: 400.0 mg/kg/injection, schedule: Q04DX003 (ip), vehicle: saline.
[6] abbreviates: T/C endpoint: mean survival time, dose: 400.0 mg/kg/injection, schedule: Q01DX009 (ip), vehicle: saline with Tween-80.
[7] abbreviates: T/C endpoint: mean survival time, dose: 400.0 mg/kg/injection, schedule: Q01DX009 (ip), vehicle: saline.

As to `CCN(CC)CCNc1cc(C)nc(/N=C(\N)Nc2ccc(OCc3ccccc3)cc2)n1`, the survivor count (T/C endpoint: mean survival time, dose: 100.0 mg/kg/injection, schedule: Q04DX003 (ip), vehicle: saline with Tween-80) is 1 of 6; the survivor count under setting [1] is reported as 0 of 6; the survivor count under setting [2] was 0 of 6.
With `c1ccc(-c2nncnn2)cc1`, the survivor count under setting [1] was 1 of 6 and the survivor count under setting [2] is on record as 0 of 6.
For `O=C(O)c1cc2ccccc2cn1`, the survivor count (T/C endpoint: mean survival time, dose: 200.0 mg/kg/injection, schedule: Q01DX009 (ip), vehicle: saline) is 0 of 6.
With `COc1ccc2[nH]c(=O)c3c(c2c1)CCC(OC(=O)c1ccccc1)C3` (stereo unspecified), the survivor count reads like this: under setting [3], 1 of 6; under setting [4], 0 of 6; under setting [5], 0 of 6.
Consider `C#CC1(c2ccccc2)OCCO1`, for which the survivor count is recorded as 3 of 6 (T/C endpoint: mean survival time, dose: 100.0 mg/kg/injection, schedule: Q01DX001 (ip), vehicle: saline with Tween-80); 0 of 6 (T/C endpoint: mean survival time, dose: 200.0 mg/kg/injection, schedule: Q01DX001 (ip), vehicle: saline with Tween-80); 0 of 6 (T/C endpoint: mean survival time, dose: 400.0 mg/kg/injection, schedule: Q01DX001 (ip), vehicle: saline with Tween-80).
As for `CN(C)c1ccc(C2(O)C3CCC2CC3)cc1` (stereo unspecified), the survivor count (T/C endpoint: median survival time, dose: 200.0 mg/kg/injection, schedule: Q04DX002 (ip), vehicle: saline with Tween-80) was 0 of 3.
With `CN(C)CCCOc1nc2c(c(=O)n(C)c(=O)n2C)n1C` (tested in a mixture with another compound), the T/C (T/C endpoint: median survival time, dose: 25.0 mg/kg/injection, schedule: Q01DX009 (ip), vehicle: Klucel (hydroxypropylcellulose) (HPC)) was 137 and 139 % of control.
As for `COc1cc(N=Nc2ccc(C(=O)O)cc2)ccc1N(CCCl)CCCl`, where the note is “T/C endpoint: mean survival time, dose: 100.0 mg/kg/injection, schedule: Q04DX003 (ip), vehicle: Klucel (hydroxypropylcellulose) (HPC)”, the T/C is 132 % of control. In addition, the survivor count runs as follows: (T/C endpoint: mean survival time, dose: 200.0 mg/kg/injection, schedule: Q04DX003 (ip), vehicle: Klucel (hydroxypropylcellulose) (HPC)) 5 of 6; (T/C endpoint: mean survival time, dose: 400.0 mg/kg/injection, schedule: Q04DX003 (ip), vehicle: Klucel (hydroxypropylcellulose) (HPC)) 4 of 6.
Turning to `C[C@]12CCCC[C@@H]1CC[C@@H]1[C@@H]2[C@@H](O)C[C@]2(C)[C@@H](O)CC[C@@H]12`, the survivor count under setting [2] was 3 of 6.
In the case of `COc1ccc(OC)c(Cc2cnc3nc(N)nc(N)c3c2C)c1`, the T/C (T/C endpoint: median survival time, dose: 40.0 mg/kg/injection, schedule: Q01DX009 (ip), vehicle: dextrose) was 131 and 137 % of control. Moreover, for the setting “T/C endpoint: median survival time, dose: 80.0 mg/kg/injection, schedule: Q01DX009 (ip), vehicle: dextrose”, the survivor count is 5 of 6.
Consider `Cc1c[n+]([O-])ccc1Br`, for which the survivor count by setting is: (T/C endpoint: mean survival time, dose: 200.0 mg/kg/injection, schedule: Q01DX009 (ip), vehicle: water) 0 of 6; (T/C endpoint: mean survival time, dose: 400.0 mg/kg/injection, schedule: Q01DX009 (ip), vehicle: water) 0 of 6.
With `CC(=O)NNC(=O)c1ccccc1`, the survivor count (T/C endpoint: mean survival time, dose: 300.0 mg/kg/injection, schedule: Q01DX009 (ip), vehicle: other) is listed as 6 of 6.
As for `CN(C)S(=O)(=O)Oc1cccc(N)c1`, under setting [2], the survivor count is 5 of 6.
As for `CCOc1ccc(/C=C/[N+](=O)[O-])cc1`, under setting [6], the survivor count is listed as 0 of 6.
Consider `CC[NH-].[Cl][Pt+2][Cl].[NH-]C1CC1`, for which the T/C was 132 % of control (T/C endpoint: mean survival time, dose: 1.56 mg/kg/injection, schedule: Q04DX003 (ip), vehicle: water); 130 % of control (T/C endpoint: mean survival time, dose: 3.13 mg/kg/injection, schedule: Q04DX003 (ip), vehicle: water); 130 % of control (T/C endpoint: mean survival time, dose: 6.25 mg/kg/injection, schedule: Q04DX003 (ip), vehicle: distilled water + Tween-80); 136 % of control (T/C endpoint: mean survival time, dose: 6.25 mg/kg/injection, schedule: Q04DX003 (ip), vehicle: water). Also, the survivor count (T/C endpoint: mean survival time, dose: 12.5 mg/kg/injection, schedule: Q04DX003 (ip), vehicle: distilled water + Tween-80) is reported as 6 of 6; the survivor count (T/C endpoint: mean survival time, dose: 12.5 mg/kg/injection, schedule: Q04DX003 (ip), vehicle: water) is given as 5 of 6; the survivor count (T/C endpoint: mean survival time, dose: 25.0 mg/kg/injection, schedule: Q04DX003 (ip), vehicle: distilled water + Tween-80) was 4 of 6; the survivor count (T/C endpoint: mean survival time, dose: 50.0 mg/kg/injection, schedule: Q04DX003 (ip), vehicle: distilled water + Tween-80) is 0 of 6; the survivor count (T/C endpoint: mean survival time, dose: 100.0 mg/kg/injection, schedule: Q04DX003 (ip), vehicle: distilled water + Tween-80) was 0 of 6; the survivor count (T/C endpoint: mean survival time, dose: 200.0 mg/kg/injection, schedule: Q04DX003 (ip), vehicle: distilled water + Tween-80) is 0 of 6.
On to `NC1CCCCC1N.O=C([O-])c1ccc(N=Nc2cccc([N+](=O)[O-])c2)cc1O.O=C([O-])c1ccc(N=Nc2cccc([N+](=O)[O-])c2)cc1O.[Pt+4]`, for which the survivor count was 2 of 6 (T/C endpoint: median survival time, dose: 50.0 mg/kg/injection, schedule: Q04DX003 (ip), vehicle: saline with Tween-80); 0 of 6 and 4 of 6 (T/C endpoint: median survival time, dose: 100.0 mg/kg/injection, schedule: Q04DX003 (ip), vehicle: saline with Tween-80); 0 of 6 (T/C endpoint: median survival time, dose: 200.0 mg/kg/injection, schedule: Q04DX003 (ip), vehicle: saline with Tween-80).
On to `COc1cccc2c1C(=O)c1c(O)c3c(c(O)c1C2=O)C[C@@](O)(C(C)=O)C[C@@H]3OC1CC(N(C)C)C(O)C(C)O1` (stereo partly specified), for which the T/C is 125 % of control (T/C endpoint: mean survival time, dose: 1.0 mg/kg/injection, schedule: Q01DX009 (ip), vehicle: saline); 132 % of control (T/C endpoint: mean survival time, dose: 2.0 mg/kg/injection, schedule: Q01DX009 (ip), vehicle: saline); 125 % of control (T/C endpoint: mean survival time, dose: 2.0 mg/kg/injection, schedule: Q01DX009 (ip), vehicle: water); 149 % of control (T/C endpoint: mean survival time, dose: 4.0 mg/kg/injection, schedule: Q01DX009 (ip), vehicle: saline); 145 % of control (T/C endpoint: mean survival time, dose: 4.0 mg/kg/injection, schedule: Q01DX009 (ip), vehicle: water).
Regarding `CC(NC(=O)NCCCl)c1ccccc1` (stereo unspecified), under “T/C endpoint: mean survival time, dose: 100.0 mg/kg/injection, schedule: Q01DX009 (ip), vehicle: saline”, the survivor count is on record as 2 of 6.
Regarding `C#CCCCCCC#[C][Hg][C]#CCCCCCC#C.C#CCCCCCC#[C][Hg][C]#CCCCCCC#C`, the survivor count is given as 5 of 6 (T/C endpoint: mean survival time, dose: 75.0 mg/kg/injection, schedule: Q01DX009 (ip), vehicle: saline) and 0 of 6 (T/C endpoint: mean survival time, dose: 300.0 mg/kg/injection, schedule: Q01DX009 (ip), vehicle: saline).
Turning to `C=C(Br)CNC(=O)CCC`, the survivor count runs as follows: under setting [3], 0 of 6; under setting [4], 0 of 6; under setting [5], 0 of 6.
With `CCCN1COC(OCC)C(C)(C)C1` (stereo unspecified), the survivor count is reported as 1 of 6 under setting [6] and 3 of 6 under setting [7].
Turning to `CC(C)(C)c1ccccc1O[Si](C)(C)C`, the survivor count (T/C endpoint: mean survival time, dose: 200.0 mg/kg/injection, schedule: Q01DX009 (ip), vehicle: saline with Tween-80) is on record as 2 of 6 and the survivor count under setting [2] was 5 of 6.
In the case of `CN1CCCC(OC(=O)N(C)C)C1` (stereo unspecified), the survivor count under setting [7] is listed as 3 of 6.
In the case of `S=C(N/N=C/c1ccccn1)N/N=C/c1ccccn1`, the survivor count (T/C endpoint: mean survival time, dose: 150.0 mg/kg/injection, schedule: Q01DX009 (ip), vehicle: saline with Tween-80) is given as 1 of 6 and the survivor count (T/C endpoint: mean survival time, dose: 300.0 mg/kg/injection, schedule: Q01DX009 (ip), vehicle: saline with Tween-80) is listed as 0 of 6.
Consider `C[n+]1cn(Cc2ccccc2)c2c([O-])n[nH]c(=O)c21`, for which the survivor count is, setting by setting: (T/C endpoint: mean survival time, dose: 9.4 mg/kg/injection, schedule: Q01DX005 (ip), vehicle: other) 3 of 3; (T/C endpoint: mean survival time, dose: 18.8 mg/kg/injection, schedule: Q01DX005 (ip), vehicle: other) 3 of 3; (T/C endpoint: mean survival time, dose: 37.5 mg/kg/injection, schedule: Q01DX005 (ip), vehicle: other) 3 of 3; (T/C endpoint: mean survival time, dose: 75.0 mg/kg/injection, schedule: Q01DX005 (ip), vehicle: other) 3 of 3; (T/C endpoint: mean survival time, dose: 150.0 mg/kg/injection, schedule: Q01DX005 (ip), vehicle: other) 3 of 3.
